This is an account of results in the supplement of paper PMC12578635.

This is one part of the list. Cut-off read from the data, not from the text of the source: active = 150% or more and inactive = the rest. Many values rest on one well or one pass, so single values are uncertain.

In the experiment the test system is Staphylococcus aureus JE2-lux inside RAW 264.7 macrophages. Put plainly: intracellular bacterial bioluminescence relative to DMSO vehicle; higher = higher intracellular bacterial metabolic activity. The conditions noted are these: 10 µM; treatment time 4 h; gentamicin 50 µg/ml. The procedure:
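RAW 264.7 macrophages infected with bioluminescent MRSA JE2-lux (MOI 100) were dispensed into 384-well plates with 10 µM compound in the presence of 50 µg/ml gentamicin. After 4 h at 37 °C, bacterial bioluminescence (a proxy for intracellular bacterial metabolic activity) and host cell viability (CellTiter-Fluor) were read and normalised to 0.1% DMSO vehicle controls. Single-pass screen of the UNC CICBDD kinase-targeted library (>4,700 compounds).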
For `COc1ccc(NC(=O)Cn2cnc3c(cnn3-c3ccccc3)c2=O)cc1`, the intracellular bacterial bioluminescence was inactive: 112%.
With `Fc1cccc(-c2nnn3c2nc(N2CCCCC2)c2cc(Cl)ccc23)c1`, the intracellular bacterial bioluminescence was inactive: 148%.
Turning to `CC(C)(C)NC(=O)C(c1cccnc1)N(C(=O)c1csnn1)c1ccc(F)cc1` (stereo not drawn), the intracellular bacterial bioluminescence is inactive: 110%.
Take `CC1CCN(C(=O)c2ccc(NC(=O)C(=O)Nc3ccc(F)c(Cl)c3)cc2)CC1`: the intracellular bacterial bioluminescence is inactive: 80.3%.
As to `CC(C)c1ccc(Cn2c(=O)c3sccc3n3c(=S)[nH]nc23)cc1`, the intracellular bacterial bioluminescence was inactive: 91.6%.
For `Cc1ccc(-n2ncc(C(=O)NCCN3CCc4ccccc4C3)c2C2CCNCC2)c(C)c1`, the intracellular bacterial bioluminescence was inactive: 126%.
Regarding `O=C(/C=C\c1ccc([N+](=O)[O-])cc1)N(Cc1cccnc1)c1nc2c(F)cc(F)cc2s1`, the intracellular bacterial bioluminescence was inactive: 94.7%.
On to `COc1ccc(Cl)cc1Nc1ncnc2sc(C)c(S(=O)(=O)N3CCCCC3)c12`, for which the intracellular bacterial bioluminescence was inactive: 116%.
`O=C(NCC1COc2ccccc2O1)c1cc2c(=O)oc3ccccc3c2s1` (stereo not drawn): the intracellular bacterial bioluminescence was inactive: 114%.
Regarding `Cc1ccc(C)c2sc(N(Cc3cccnc3)C(=O)Cc3ccc(F)cc3)nc12`, the intracellular bacterial bioluminescence is inactive: 47.6%.
The same measure for `Cc1csc(NC(=O)CSc2nnc(-c3ccccn3)n2-c2ccc(Cl)cc2)n1`: inactive: 68.7%.
For the compound `O=C(NCc1ccccc1)NC1(C(=O)NCc2ccc3c(c2)OCO3)CCCCC1`, the intracellular bacterial bioluminescence was inactive: 135%.
Take `Cc1c(C)n(Cc2ccccc2)c2ncn3nc(-c4ccc(Cl)cc4)nc3c12`: the intracellular bacterial bioluminescence is inactive: 129%.
In the case of `COc1cccc(Nc2nc(N)nc(CN3CCc4ccccc4C3)n2)c1`, the intracellular bacterial bioluminescence was inactive: 51.1%.
The result for `COc1ccc(OC)c2sc(N(Cc3cccnc3)C(=O)C3COc4ccccc4O3)nc12` (stereo not drawn) reads inactive: 94.2%; that for `CCn1c(=O)[nH]c(=O)c2cnc(-c3ccc(Cl)cc3)nc21`, inactive: 135%; that for `O=C(Nc1nc2c(F)cc(F)cc2s1)c1ccc2ccccc2c1`, inactive: 92.1%.
As for `COC(=O)C(Cc1ccc(O)cc1)NC(=O)CCOc1ccc(OC)cc1` (stereo not drawn), the intracellular bacterial bioluminescence is inactive: 129%.
As for `COc1ccc2cc(CCNC(=O)CCC3CCCC3)c(=O)[nH]c2c1`, the intracellular bacterial bioluminescence was inactive: 68%.
The same measure for `COc1ccc(-n2c(N)cc(=O)nc2SCC(=O)N2CCCc3ccccc32)cc1`: inactive: 121%; for `Cc1ccc(CNC(=O)C(C)C2CCN(C(=O)c3cc4ccccc4[nH]3)CC2)cc1` (stereo not drawn): inactive: 34.9%.
For `CC/N=C1\S/C(=C2\C(=O)Nc3ccccc32)C(=O)N1CC`, the intracellular bacterial bioluminescence was inactive: 104%.
Take `CC(=O)Nc1cc(-c2noc(-c3ccsc3)n2)ccc1-n1ccnc1`: the intracellular bacterial bioluminescence is inactive: 91.5%.
The same measure for `COc1ccccc1-c1cc(C(=O)NCc2ccccc2)c2c(-c3ccccc3)[nH]nc2n1`: inactive: 87.6%.
Consider `COc1ccccc1N1CCN(C(=O)Cn2cnc3onc(-c4ccc(C)cc4)c3c2=O)CC1`, for which the intracellular bacterial bioluminescence is inactive: 108%.
For the compound `Cn1c(=O)c2c(nc(S)n2Cc2ccc(F)cc2)n(C)c1=O`, the intracellular bacterial bioluminescence is inactive: 114%.
Consider `CCN1CCN(c2nc3ncn(CC(=O)NCc4ccccc4Cl)c(=O)c3s2)CC1`, for which the intracellular bacterial bioluminescence was inactive: 94.9%.
The result for `O=C(CSc1nnc2c(n1)-c1cccc3cccc-2c13)Nc1cc(Cl)ccc1Cl` reads inactive: 104%; that for `CCc1nc(SCC(=O)NCC2CCCO2)c2c(=O)n(C)c(=O)n(C)c2n1` (stereo not drawn), inactive: 110%.
Turning to `C=CCOc1ccccc1NC(=O)c1ccnc2ccc(Cl)cc12`, the intracellular bacterial bioluminescence is inactive: 96.7%.
`CCn1nc(C)c(CCNC(=O)c2cc3c(=O)n(CCOC)ccc3nc2C)c1C`: the intracellular bacterial bioluminescence is inactive: 142%.
For the compound `CN1C(=O)N(C(=O)c2ccc(F)cc2F)c2cccnc2N1C`, the intracellular bacterial bioluminescence was inactive: 90.1%.
As to `Nn1c(SCc2cccc(Cl)c2)nncc1=O`, the intracellular bacterial bioluminescence is inactive: 67.3%.
In the case of `CCOc1ccccc1Nc1nc(C)nc2c1c(C)c(C)n2-c1ccccc1`, the intracellular bacterial bioluminescence was inactive: 103%.
The result for `O=C(Nc1cccnc1)C(=O)Nc1cccc2ccccc12` reads inactive: 90.7%.
For `Cc1ccc(-n2nnc3c(SCC(=O)Nc4ccc(C)c(Cl)c4)ncnc32)cc1`, the intracellular bacterial bioluminescence is inactive: 105%.
Turning to `COc1ccc(CNC(=O)c2cnc3cc4c(cc3c2O)OCCO4)cc1`, the intracellular bacterial bioluminescence is inactive: 89.9%.
Regarding `CCOc1cc(/C=N/Nc2ncnc3[nH]cnc23)ccc1O`, the intracellular bacterial bioluminescence is inactive: 101%.
For the compound `Cc1ccc(S(=O)(=O)N2CCCc3ccc(NS(=O)(=O)c4ccc(F)cc4C)cc32)cc1`, the intracellular bacterial bioluminescence is inactive: 86.8%.
For the compound `C=CCc1cccc2cc(C(N)=O)/c(=N\Cc3ccccc3)oc12`, the intracellular bacterial bioluminescence was inactive: 103%.
As for `Cc1ccc(-c2noc(CCC(=O)Nc3ccc(CCc4nc5cc(C)ccc5[nH]4)cc3)n2)cc1`, the intracellular bacterial bioluminescence was inactive: 103%.
On to `CCOC(=O)COc1ccccc1C1CC(c2ccccc2)=NN1C(=O)c1cccs1` (stereo not drawn), for which the intracellular bacterial bioluminescence was inactive: 90.6%.
For `CC(C)c1ccc2nc3sc(C(=O)NCC4CCCO4)c(N)c3cc2c1` (stereo not drawn), the intracellular bacterial bioluminescence is inactive: 112%.
Regarding `Cn1c(NC(=O)/C=C\c2ccccc2)cc(=O)n(C)c1=O`, the intracellular bacterial bioluminescence is inactive: 109%.
The same measure for `CCCc1cc(CNC(=O)c2c(-c3ccncc3)noc2C)on1`: inactive: 103%; for `Cc1ccc(-n2c(=O)c3cccnc3n2CC(=O)N2CCCCC2C)cc1` (stereo not drawn): inactive: 77.9%; for `COc1ccc2c(c1OC)C(=O)OC2Nc1cccc(F)c1` (stereo not drawn): inactive: 106%.
With `CCN1CCN(CC(=O)NC2CCCC2)C(=O)C1=O`, the intracellular bacterial bioluminescence is inactive: 110%.
In the case of `Cc1ccccc1-n1c(C)c(C)c2c1ncn1nc(-c3ccccc3O)nc21`, the intracellular bacterial bioluminescence is inactive: 92%.
As to `COc1ccc(Cl)c(NC(=O)c2sc3nc(-c4cccnc4)ccc3c2N)c1`, the intracellular bacterial bioluminescence was inactive: 106%.
Consider `O=C(c1ccc2c(c1)OCO2)N1CCN(c2ccc(Nc3cccnc3)nn2)CC1`, for which the intracellular bacterial bioluminescence was inactive: 94.2%.
Regarding `Cc1cc(=O)[nH]c(SCc2ccc(C(=O)Nc3nccs3)cc2)n1`, the intracellular bacterial bioluminescence is inactive: 88.3%.
As to `O=C(CSC1=NS(=O)(=O)c2cc(F)ccc2N1)NCc1ccccc1Cl`, the intracellular bacterial bioluminescence is inactive: 102%.
On to `CCc1nnc2ccc(C(=O)N3CCN(c4ccccn4)CC3)cn12`, for which the intracellular bacterial bioluminescence was inactive: 97.3%.
The result for `Cn1c2ccccc2c2nnc(SCC(=O)Nc3ccc(NC(=O)C4CC4)cc3)nc21` reads inactive: 102%; that for `Cc1cc2oc(=O)cc(-c3cc4ccccc4o3)c2cc1OC(=O)C1CC1`, inactive: 122%; that for `CCN1CCN(C(=O)C2CCN(C3=NS(=O)(=O)C(c4ccc(OC)cc4)=C3C)CC2)CC1`, inactive: 84.9%.
`COc1ccc(CCNc2ncnc3oc4c(c23)CCCC4)c(OC)c1`: the intracellular bacterial bioluminescence was inactive: 104%.
